Results deposited as PubChem BioAssay AID686937 (Drosophila RNAi Screening Center, 2013).

- Aim: 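Genes whose loss weakens secretory pathway function in fly cells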 (primary screen)
- System: Drosophila S2 cells expressing secreted horseradish peroxidase
- Reagents: long dsRNA against Drosophila genes
- Duration: about 5.5 days (5 days dsRNA, then 12 h reporter induction)
- Conditions: reporter expression induced after 5 days of dsRNA, read 12 h later; inducer not stated
- Measurement: 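Chemiluminescent measurement of peroxidase in the medium 12 h after reporter induction, following 5 days of dsRNA, given as a z-score per plate; higher means more secretion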
- Reading the numbers: z-score: higher = more reporter secreted into medium
The screen tested about 23,000 reagents; shown is a random part of those with a known target gene and a result. 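Reduced-secretion tags in replicate 1 do not always agree with the z-scores; no criterion for assigning the tags was given.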 Names joined by + are all predicted targets of the reagent. Further read-outs or replicates are left out here. Not stated in the record: the amount of reagent.

Cog8 [DRSC02961]
- z-score, replicate 1: -0.06

CG11911 [DRSC00331]
- z-score, replicate 1: 0.16

CG17593 [DRSC00504]
- z-score, replicate 1: 0.2

CG30356 [DRSC05119]
- z-score, replicate 1: -0.3

tank [DRSC00461]
- z-score, replicate 1: 0.26

Ccs [DRSC06692]
- z-score, replicate 1: 0.46

mael [DRSC11894]
- z-score, replicate 1: 0.12

Crtc [DRSC10578]
- z-score, replicate 1: -2.93

A few values from above:
mael [DRSC11894], z-score, replicate 1 = 0.12
Result of Ccs [DRSC06692] in “z-score, replicate 1”: 0.46
CG30356 [DRSC05119], z-score, replicate 1 = -0.3

Next reagents follow.
CG6462 [DRSC10641]
- z-score, replicate 1: 0.32

CG4911 [DRSC10456]
- z-score, replicate 1: 0.38

Josd [DRSC18323]
- z-score, replicate 1: 0.44

Cpr76Bd [DRSC11063]
- z-score, replicate 1: 0.52

Dlip1 [DRSC18460]
- z-score, replicate 1: 0.52

CG4119 [DRSC17741]
- z-score, replicate 1: 0.48

Oct-TyrR [DRSC11883]
- z-score, replicate 1: 0.07

sing + Axs [DRSC19333]
- z-score, replicate 1: 0.12
